One substance from paper PMC4899846 can be followed below.

Amino acid sequences for entries named in this document (tags omitted). A change or cut given only in a name is not applied to a line headed by its entry. Chains listed by the source or under a name are the forms on record and can include a tag or linker.
Flag-tagged Δ(71–190) GPRC5A (Q8NFJ5, form named): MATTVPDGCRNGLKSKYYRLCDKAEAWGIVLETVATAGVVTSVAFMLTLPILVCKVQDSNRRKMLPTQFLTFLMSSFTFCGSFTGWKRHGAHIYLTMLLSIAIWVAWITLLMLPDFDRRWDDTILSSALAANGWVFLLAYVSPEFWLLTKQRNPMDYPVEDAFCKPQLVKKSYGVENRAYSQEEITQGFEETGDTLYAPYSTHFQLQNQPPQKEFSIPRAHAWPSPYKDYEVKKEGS
UniProt P60842: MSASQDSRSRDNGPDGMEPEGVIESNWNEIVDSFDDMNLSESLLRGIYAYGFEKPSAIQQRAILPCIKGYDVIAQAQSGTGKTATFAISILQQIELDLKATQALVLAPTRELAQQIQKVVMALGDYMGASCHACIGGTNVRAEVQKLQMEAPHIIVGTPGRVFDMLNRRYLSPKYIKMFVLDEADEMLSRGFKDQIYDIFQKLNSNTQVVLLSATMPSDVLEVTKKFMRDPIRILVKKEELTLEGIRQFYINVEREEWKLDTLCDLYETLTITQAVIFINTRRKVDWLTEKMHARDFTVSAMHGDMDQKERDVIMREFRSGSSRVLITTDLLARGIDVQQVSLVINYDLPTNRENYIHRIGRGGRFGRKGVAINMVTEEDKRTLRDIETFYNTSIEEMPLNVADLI

No constants are given. Whether binding was seen depends on the method and setting. In cells and extracts the contact can be indirect.

The test has as its target Flag-tagged Δ(71–190) GPRC5A (human) (UniProt Q8NFJ5). Description: co-IP; ANTI-FLAG M2 Affinity Gel on H1299 lysates; NP-40 lysis buffer (50 mM Tris-HCl pH 8.0, 150 mM NaCl, 1% NP-40) with RNase cocktail, 4 °C; western blot. A general note: A western blot detects proteins with antibodies after separation by electrophoresis.

Consider eIF4A1 (from UniProt P60842 1-406), for which the binding entry is reported as “no binding”.
